Experimental data: article PMC6112376, “Comprehensive Analyses and Prioritization of Tox21 10K Chemicals Affecting Mitochondrial Function by in-Depth Mechanistic Studies” (Environmental Health Perspectives, 2018)
Like-named read-outs stand apart in the source and are kept apart here.

Columns and labels:
HepG2 cells [1] = conditions: read-out: MMP assays IC50 (µM), qHTS-HepG2; cited from earlier work
HepG2 cells [2] = assay: cells; conditions: Homo sapiens, HepG2, read-out: MMP assays IC50 (µM), HepG2

In the case of O=C(CCCN1CCC2(CC1)C(=O)NCN2c1ccccc1)c1ccc(F)cc1 [Spiperone], the IC50 (HepG2 cells [1]) is listed as 3.62 ± 0.24 µM and the IC50 (HepG2 cells [2]) is listed as 3.46 µM.
